Test results published in paper PMC8509050, “BZR1 Physically Interacts with SPL9 to Regulate the Vegetative Phase Change and Cell Elongation in Arabidopsis” (International Journal of Molecular Sciences, 2021).
No constants are given. Whether binding was seen depends on the method and setting. For some of these results: Binding seen in cells or lysates may run through a third protein. Some entries that bind do so weakly or less than the wild type. For some of these results: Sequences can lack the tags named with a protein.

By UniProt entry, the sequences of proteins in these tests, tags left out.
UniProt Q9LN63: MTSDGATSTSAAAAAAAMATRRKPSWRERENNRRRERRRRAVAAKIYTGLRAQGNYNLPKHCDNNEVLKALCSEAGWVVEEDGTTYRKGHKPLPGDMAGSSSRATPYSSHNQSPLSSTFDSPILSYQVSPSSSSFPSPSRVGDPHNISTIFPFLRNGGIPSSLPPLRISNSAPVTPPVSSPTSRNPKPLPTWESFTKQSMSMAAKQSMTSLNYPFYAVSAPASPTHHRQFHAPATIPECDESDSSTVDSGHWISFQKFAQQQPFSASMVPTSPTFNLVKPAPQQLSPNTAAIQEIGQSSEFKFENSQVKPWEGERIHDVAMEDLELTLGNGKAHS

T1: SQUAMOSA PROMOTER BINDING PROTEIN-LIKE9 (SPL9), GAL4BD fusion (Arabidopsis thaliana) (UniProt Q700W2)
T1 sequence: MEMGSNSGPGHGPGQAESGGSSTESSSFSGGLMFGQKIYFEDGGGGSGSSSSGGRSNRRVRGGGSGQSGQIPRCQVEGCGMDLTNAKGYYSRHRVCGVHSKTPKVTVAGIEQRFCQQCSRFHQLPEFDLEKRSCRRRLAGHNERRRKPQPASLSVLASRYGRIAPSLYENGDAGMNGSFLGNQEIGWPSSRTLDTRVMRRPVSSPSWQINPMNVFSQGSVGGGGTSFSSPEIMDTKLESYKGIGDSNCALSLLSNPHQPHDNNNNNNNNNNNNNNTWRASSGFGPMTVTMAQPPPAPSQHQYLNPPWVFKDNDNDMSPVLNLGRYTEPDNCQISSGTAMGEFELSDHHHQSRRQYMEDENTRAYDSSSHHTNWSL

T2: SPL9-nYFP (Arabidopsis thaliana) (UniProt Q700W2)
T2 sequence: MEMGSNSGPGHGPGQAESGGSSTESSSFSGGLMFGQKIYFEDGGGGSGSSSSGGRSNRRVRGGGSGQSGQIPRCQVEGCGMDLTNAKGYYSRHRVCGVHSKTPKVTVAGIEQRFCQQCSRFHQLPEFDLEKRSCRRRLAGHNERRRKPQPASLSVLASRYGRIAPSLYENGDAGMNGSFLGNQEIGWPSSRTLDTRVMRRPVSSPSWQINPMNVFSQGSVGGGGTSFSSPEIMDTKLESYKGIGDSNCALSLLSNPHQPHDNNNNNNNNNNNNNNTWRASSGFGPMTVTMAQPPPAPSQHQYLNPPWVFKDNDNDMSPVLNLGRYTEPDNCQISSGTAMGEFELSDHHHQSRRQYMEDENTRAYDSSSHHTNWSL


Assays:
[1] = molecular target: T1, SQUAMOSA PROMOTER BINDING PROTEIN-LIKE9 (SPL9), GAL4BD fusion (Arabidopsis thaliana); experiment: two-hybrid; direct test in yeast, SPL9 as GAL4BD fusion against BZR1, BES1, BIN2 and fragments of BZR1; growth on SD medium
[2] = molecular target: T2, SPL9-nYFP (Arabidopsis thaliana); experiment: split reporter; BiFC in tobacco (Nicotiana tabacum) leaves, SPL9-nYFP and BZR1-cYFP injected by Agrobacterium, at least 36 h at 22 °C, confocal microscopy
[3] = molecular target: BRASSINAZOLE-… 1 (BZR1), bait of the two-hybrid screen (Arabidopsis thaliana) (UniProt Q8S307); experiment: two-hybrid; screen for proteins interacting with BZR1 in yeast; library not described

binding [1] | Molecule | also measured
binds | BRASSINAZOLE-… 1 (BZR1), two-hybrid fusion (from UniProt Q8S307 1-336) | 
binds | BRI1-EMS-SUPPRESSOR 1 (BES1), two-hybrid fusion (from UniProt Q9LN63 1-335) | 
 | BZR1-cYFP (from UniProt Q8S307 1-336) | binding [2]: binds
 | SPL9, candidate found in the two-hybrid screen with BZR1 (protein, UniProt Q700W2 1-375) MEMGSNSGPGHGPGQAESGGSSTESSSFSGGLMFGQKIYFEDGGGGSGSSSSGGRSNRRVRGGGSGQSGQIPRCQVEGCGMDLTNAKGYYSRHRVCGVHSKTPKVTVAGIEQRFCQQCSRFHQLPEFDLEKRSCRRRLAGHNERRRKPQPASLSVLASRYGRIAPSLYENGDAGMNGSFLGNQEIGWPSSRTLDTRVMRRPVSSPSWQINPMNVFSQGSVGGGGTSFSSPEIMDTKLESYKGIGDSNCALSLLSNPHQPHDNNNNNNNNNNNNNNTWRASSGFGPMTVTMAQPPPAPSQHQYLNPPWVFKDNDNDMSPVLNLGRYTEPDNCQISSGTAMGEFELSDHHHQSRRQYMEDENTRAYDSSSHHTNWSL | binding [3]: binds
